No constants are given. Whether binding was seen depends on the method and setting. Binding calls can cover weak binding; strength is not graded here.
Target: T1, ISA1-N628K, product of su1-Bn2, native protein of maize endosperm (maize (Zea mays L.) (endogenous in endosperm)) (UniProt O22637)
T1 sequence: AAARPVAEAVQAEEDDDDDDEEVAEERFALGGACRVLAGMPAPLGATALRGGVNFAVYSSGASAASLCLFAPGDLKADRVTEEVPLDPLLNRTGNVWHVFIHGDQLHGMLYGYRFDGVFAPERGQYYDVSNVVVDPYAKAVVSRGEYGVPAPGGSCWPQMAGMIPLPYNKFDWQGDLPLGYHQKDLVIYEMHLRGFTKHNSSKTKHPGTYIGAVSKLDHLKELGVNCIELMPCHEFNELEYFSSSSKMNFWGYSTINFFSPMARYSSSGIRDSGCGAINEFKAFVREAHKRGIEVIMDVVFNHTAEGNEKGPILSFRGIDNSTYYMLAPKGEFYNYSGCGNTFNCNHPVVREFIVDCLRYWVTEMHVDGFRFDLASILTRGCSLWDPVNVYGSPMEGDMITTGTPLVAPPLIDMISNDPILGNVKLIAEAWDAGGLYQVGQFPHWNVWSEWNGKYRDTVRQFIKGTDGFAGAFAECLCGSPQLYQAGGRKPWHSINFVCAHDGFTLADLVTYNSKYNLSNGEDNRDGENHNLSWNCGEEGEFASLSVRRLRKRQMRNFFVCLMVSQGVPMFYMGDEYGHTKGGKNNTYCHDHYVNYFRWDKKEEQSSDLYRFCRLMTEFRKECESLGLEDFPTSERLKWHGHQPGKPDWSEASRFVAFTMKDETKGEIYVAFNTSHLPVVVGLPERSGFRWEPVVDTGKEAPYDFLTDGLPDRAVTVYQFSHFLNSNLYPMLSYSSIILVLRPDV
Experiment: SEC; soluble extracts of 20 DAP endosperm on Superose 6 Increase 10/300 GL; 50 mM Tris-acetate pH 7.5, 150 mM NaCl, 1 mM DTT; 4 °C; fractions analysed by SDS-PAGE and immunoblot

Sequence: ISOAMYLASE 2 (ISA2), native protein of maize endosperm
- binding: binds

Reference: publication PMC12510319
